Data published in PubChem BioAssay AID662 (National Center for Advancing Translational Sciences (NCATS), 2007).
This is one part of the list. Shown are side measurements of this screen, not its main read-out; they come without a call. The list favours compounds with an active or inconclusive main result. Words in brackets tell the shape of the fitted curve; partial curves, single points and poor fits give uncertain potencies.

Test: Cell signaling CRE-BLA (Fsk stim)
Conditions: CHO CRE-bla reporter (cAMP response element driving beta-lactamase), forskolin EC10, beta-lactamase ratio; measured here: 460 nm blue channel
Description: NIH Molecular Libraries Screening Centers Network [MLSCN]
NIH Chemical Genomics Center [NCGC]
Assay Provider: Marshall W. Nirenberg, U.S. National heart lung & blood institute
Memories persist for different lengths of time, from seconds or minutes to a lifetime. There are two kinds of memory: short-term memory (STM) and long-term memory (LTM). STM lasts for minutes to hours, which maybe mediated by modifications of molecules involved in synaptic functions. LTM lasts for days or longer, and may be due to the formation of new synapses or restructuring of existing synapses. LTM, but not STM, requires gene transcription and synthesis of proteins. CREB (cyclic-AMP Responsive Element Binding Protein) is one of the candidates plays an important role for enhancement of some types of LTM. CREB, a family of transcription factors, regulates the transcription of genes containing cAMP Responsive Elements (CRE). CRE is a nucleotide sequence often found in the promoter regions of genes that are binding sites for CREB.
Using a beta-lactamase reporter-gene under control of cAMP responsive element, a cell-based assay [CellSensor(TM) CRE-bla CHO developed by Invitrogen Corp.] was used to measure forskolin-induced signaling. Library compounds were measured for their ability to modulate positively or negatively the action of EC10 NKH 477, a water soluble forskolin, on reporter gene activity. Compounds were screened in a titration series in 1536-well format. Positive and negative modulators were identified based on the AC50 values derived from the screening data.
NCGC Assay Protocol Summary
2000 cells/5uL in Opti-MEM medium containing 0.5% dialyzed FBS, 0.1 mM NEAA, 1 mM sodium pyruvate and 10 mM HEPES was dispensed into 1536-well plates and cells were cultured at 37 degrees Celsius overnight. […] And then the plates were incubated at 37 degrees Celsius for 3 hours. 1 uL of CCF4-dye mixture was added to each well. After incubated at room temperature for 2 hours the plates were measured on an EnVision plate reader at Excitation 405nm, Emission1=460nm and Emission 2=530nm. The %Activity was determined from the ratio of 460nm/530nm.
Keywords: NIH Roadmap, MLSCN, MLSMR, qHTS, NCGC, CRE, beta-lactamase reporter-gene assay.

Structure (SMILES) | AC50
COC(=O)COc1cc(C)cc2oc(=O)c3c(c12)CCCC3 | 12.6 µM [rising, partial curve]
CN(C)c1ccc(N=Nc2ccccc2)cc1 | 12.6 µM [falling, partial curve, poor fit]
C[C@@H](Cc1ccccc1)NCCC(c1ccccc1)c1ccccc1 | 10 µM [falling, partial curve, poor fit]
C[C@H]1CCCC=CC2C[C@H](O)C[C@@H]2[C@H](O)/C=C\C(=O)O1 (some centres not stated) | 0.501 µM [falling, full curve]
CC(C)CC(C)Nc1ccc(Nc2ccccc2)cc1 (configuration not stated) | 25.1 µM [falling, single point]
COc1ccc(N2C(=O)CC(N3CC=C(c4ccccc4)CC3)C2=O)cc1 (configuration not stated) | 31.6 µM [falling, single point]
N#CC1=C(N)Oc2c(c(=O)oc3ccccc23)C1c1cccnc1 (configuration not stated) | 5.01 µM [falling, partial curve]
CCOC(=O)CC(SP(=O)(OC)OC)C(=O)OCC (configuration not stated) | 2.51 µM [falling, full curve, poor fit]
Oc1ccc2c3c1O[C@H]1c4c(c5ccccc5n4Cc4ccccc4)C[C@]4(O)[C@H](C2)N(CC2CC2)CC[C@@]314 | 20 µM [falling, partial curve, poor fit]
C[C@H]1CCC[C@H](O)CCCCCc2cc(O)cc(O)c2C(=O)O1 | 10 µM [rising, single point]
COC(=O)c1cc(COc2cc(C)cc3oc(=O)c4c(c23)CCC4)c(C)o1 | 5.01 µM [falling, single point]
Cn1ncnc2c(=O)n(C)c(=O)nc1-2 | 0.794 µM [falling, full curve, poor fit]
CC(=O)[O-].CC(=O)[O-].O.O.[Cd+2] | 1 µM [rising, full curve, poor fit]
Cc1[nH]c2ccccc2c1C1=CCNCC1 | 10 µM [falling, partial curve]
C=CCCN1C[C@@H]2C[C@H](C1)c1cccc(=O)n1C2 | 15.8 µM [falling, partial curve, poor fit]
CCC(=NCC1CCCO1)c1c(O)[nH]c(=O)[nH]c1=O (configuration not stated) | 12.6 µM [rising, partial curve, poor fit]

Structure (SMILES) | AC50
CCOC(=O)c1c(-c2ccccc2)oc2ccc(OC(=O)N(C)C)cc12 | 15.8 µM [rising, partial curve]
COc1ccccc1CN1CCN(C(=O)Cc2ccccc2)CC1 | 0.158 µM [rising, full curve]
O=[As](O)(O)c1ccc(Cc2ccc([As](=O)(O)O)cc2)cc1 | 3.98 µM [rising, single point]
c1ccc2c(CN3CCN(C4CCCCC4)CC3)c[nH]c2c1 | 2.51 µM [falling, full curve]
CCOP(=O)(C#CC(C)(C)C)C(O)(c1ccccc1)C(F)(F)F (configuration not stated) | 25.1 µM [rising, single point]
CC(C)(O)[C@@H]1[C@H]2OC(=O)[C@@H]1[C@]1(O)C[C@H]3O[C@]34C(=O)O[C@H]2[C@@]14C (tested in a mixture with another compound) | 15.8 µM [falling, single point]
CCCCP(=O)(O)CCC(=O)O | 3.98 µM [falling, full curve]
CCOc1cc2[nH]c(=S)n(CCCC(=O)N3CCC4(CC3)OCCO4)c(=O)c2cc1OCC | 0.00398 µM [falling, full curve, poor fit]
C[C@@H]1CCC/C=C\[C@H]2C[C@H](O)C[C@@H]2[C@H](O)/C=C\C(=O)O1 | 15.8 µM [falling, partial curve]
O=c1[nH]c(=O)n(CCC2=CCCCC2)c(O)c1C=NC1CCN(Cc2ccccc2)CC1 | 2.51 µM [rising, partial curve]
O=S(=O)(c1ccc(Cl)cc1)N1CN2CCN(C2)C1 | 0.126 µM [falling, single point]
COc1cccc(-c2nc(CS(=O)CC(=O)N3CCC4(CC3)OCCO4)c(C)o2)c1 (configuration not stated) | 0.00316 µM [falling, full curve, poor fit]
O=C(NC1(C(F)(F)F)Oc2ccc(Cl)cc2O1)N1CCC2(CC1)OCCO2 (configuration not stated) | 7.94 µM [falling, partial curve, poor fit]
CCOCN(C(=O)CCl)c1c(C)cccc1CC | 15.8 µM [falling, partial curve, poor fit]
COc1ccccc1-n1c(O)c(C=NCc2ccc3c(c2)OCO3)c(=O)[nH]c1=O | 12.6 µM [falling, partial curve]
C=C(C)CN1CC[C@@]23c4c5ccc(O)c4O[C@H]2c2[nH]c4ccccc4c2C[C@]3(O)[C@@H]1C5 | 15.8 µM [falling, partial curve]

In another format: entries from further up.

| Structure (SMILES) | AC50 |
| --- | --- |
| O=[As](O)(O)c1ccc(Cc2ccc([As](=O)(O)O)cc2)cc1 | 3.98 µM [rising, single point] |
| c1ccc2c(CN3CCN(C4CCCCC4)CC3)c[nH]c2c1 | 2.51 µM [falling, full curve] |
